Experimental data: PubChem BioAssay AID743121 (NCATS, 2013)
The whole screen tested about 26,000 reagents; this is a random part of them. In the full data, 167 (0.63%) are marked active. 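Calls are per gene from RSA p-values that are not deposited; an individual active-marked siRNA can sensitise only weakly.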 Unmarked entries are inactive. Further read-outs or replicates are left out here. Reagent sequences are not shown.

Assay: 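Partners whose loss is lethal together with topoisomerase I blockade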 (primary screen)
Cell system: MDA-MB-231 cells, a human breast cancer line
Knock-down reagent: single siRNA against human genes, 20 nM siRNA (0.8 pmol per well)
Timing: 120 h (drug added 48 h after transfection, read 72 h later)
Conditions: camptothecin 20 nM (about EC30) for 72 h; vehicle 0.1% DMSO in parallel plates
Detection: 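Cell viability by ATP luminescence (CellTiter-Glo) as % of non-targeting siRNA wells, and the log2 ratio of viability without drug over viability with camptothecin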
Direction: log2 vehicle/camptothecin viability: higher = stronger sensitisation to camptothecin
Rule for the call: 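Each gene scored by redundant siRNA activity (RSA) over its individual siRNA ratios; a gene is called active at p < 0.001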

log2 vehicle/camptothecin viability, by gene and reagent
RHOXF1: SID164578391 0.199; SID164578394 -0.468; SID164578396 -0.0519; SID164578397 -0.121
GNG10: SID164367005 -0.28; SID164367007 -0.527; SID164367008 -0.224; SID164367009 -0.0117
RFC2: SID164385138 -0.277; SID164385142 0.217; SID164385144 0.0104; SID164385147 -0.261
ANK3: SID164353380 -0.139; SID164353382 -0.125; SID164353383 0.0279; SID164353384 -0.336
PHF23: SID164530813 -0.16; SID164530816 -0.431; SID164530819 -0.0621
NCOR1: SID164404850 -0.272; SID164404852 -0.148; SID164404853 -0.816
RPS6KA3: SID164386321 -0.316; SID164386322 -0.207; SID164386324 -0.183; SID164386325 -0.181
GPHRB: SID164474035 0.128; SID164709015 1.22; SID174316105 -0.245; SID174316106 -0.0222
TRIM48: SID164530596 0.0684; SID164530598 -0.193; SID164726715 -0.502
RPA3: SID164385765 -0.0883; SID164385766 -0.132; SID164385770 -0.182

A stretch of the results above:
log2 vehicle/camptothecin viability, by gene and reagent
GNG10: SID164367009 -0.0117
RFC2: SID164385138 -0.277; SID164385142 0.217; SID164385144 0.0104; SID164385147 -0.261
ANK3: SID164353380 -0.139; SID164353382 -0.125

Additional entries:
log2 vehicle/camptothecin viability, by gene and reagent
IFNGR2: SID164370925 0.0702; SID164370927 -0.245; SID164370928 0.356; SID164370930 0.329
PAX7: SID164379525 -0.236; SID164379528 0.17; SID164379531 -0.262; SID164379534 -0.372
KCNK4: SID164470617 -0.666; SID164470618 1.19; SID164470619 -0.654; SID164470622 -0.0128
NKX3-1: SID164378055 -0.188; SID164378056 -0.444; SID164378057 -0.275; SID164378058 -0.552
HDAC4: SID164406101 -0.365; SID164406103 -0.25; SID164406104 -0.0338; SID164406105 -0.333
RNF25: SID164502081 -0.279; SID164502082 -0.235; SID164502084 0.746; SID164502085 -0.11
CKS1B: SID164358583 0.313; SID164358585 1.38; SID164358587 -0.0167; SID164358589 -0.192
RAC1: SID164384449 -0.704; SID164384450 -0.382; SID164384452 -0.155; SID164384453 -0.388
